Values quoted from earlier work in patent US20230339871A1, “COMPOUNDS AND METHODS OF MODULATING 17B-HYDROXYSTEROID DEHYDROGENASE TYPE 13” (METREA BIOSCIENCES, INC., priority 2020, published 2023).
At least one structure is not confirmed: it was looked up by name or label, or the drawing left a doubt.

Conditions: REGENERATE, NCT02548351; cited from earlier work

CC[C@H]1[C@@H](O)[C@@H]2[C@H](CC[C@]3(C)[C@@H]([C@H](C)CCC(=O)O)CC[C@@H]23)[C@@]2(C)CC[C@@H](O)C[C@@H]12 [Obeticholic acid]
Status (as of May 2020): Completed - positive
